The values that follow come from publication PMC5346550.

The target in assay [1] is T1, Arabidopsis Ying Yang 1 (AtYY1) fused to the GAL4 DNA binding domain (AtYY1-BD) (Arabidopsis thaliana) (UniProt Q2V3L3).
T1 sequence: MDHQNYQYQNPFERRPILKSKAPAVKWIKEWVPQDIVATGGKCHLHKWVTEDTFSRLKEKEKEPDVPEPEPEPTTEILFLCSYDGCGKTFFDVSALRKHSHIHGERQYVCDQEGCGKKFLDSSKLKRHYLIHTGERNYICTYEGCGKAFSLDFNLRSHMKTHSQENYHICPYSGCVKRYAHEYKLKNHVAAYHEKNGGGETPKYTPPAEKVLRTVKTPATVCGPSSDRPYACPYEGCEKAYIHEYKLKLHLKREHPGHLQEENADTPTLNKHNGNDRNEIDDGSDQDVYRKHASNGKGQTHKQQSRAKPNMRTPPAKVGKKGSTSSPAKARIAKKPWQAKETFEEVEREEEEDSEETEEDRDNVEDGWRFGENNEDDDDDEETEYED
The assay can be described thus: two-hybrid; yeast AH109 co-transformed with AtYY1-BD (pGBKT7) and AD fusions (pGADT7); growth on SD/-Trp/-Leu/-His and liquid beta-galactosidase assay with ONPG.

The target of assay [2] is T2, AtYY1 fused to the N-terminal portion of yellow fluorescent protein (AtYY1-YFP^N) (Arabidopsis thaliana) (UniProt Q2V3L3).
T2 sequence: T1 sequence
The assay can be described thus: split reporter; BiFC with YFP^N and YFP^C fusions in onion epidermal cells, particle bombardment, darkness at 22°C overnight, confocal microscopy.

No constants are given. Whether binding was seen depends on the method and setting. For some of these results: In cells and extracts the contact can be indirect. Some binding calls cover weakened binding; strength is not graded here. Where a sequence is shown, tags or fusion partners need not be part of it.

B1: CKII regulatory subunit CKB4 fused to the GAL4 activation domain (CKB4-AD) (protein, UniProt O80507 1-283)
chain: MYKDRSGGGIMGGGGSSRSEILGGAIDRKRINDALDKHLKKSSPSTSRVFTSKDKDSVPSTSTAKSQLHSRSPDVESDTDSEGSDVSGSEGDDTSWISWFCNLRGNEFFCEVDEDYIQDDFNLCGLSGQVPYYDYALDLILDVESSNGDMFTEEQHEMVESAAEMLYGLIHVRYILTTKGMAAMMEKYKNYDFGRCPRVFCCGQSCLPVGQSDIPRSSTVKIYCPKCEDIYYPRSKYQGNIDGAYFGTTFPHLFLMAYGNMKPQKPAQNYVPKIFGFKVHNKQ
For the molecule B1, the binding entry in assay [1] is given as “binds weakly”.

B2: CKB4 fused to the C-terminal portion of yellow fluorescent protein (CKB4-YFP^C) (protein, UniProt O80507 1-283)
chain: B1 chain
For B2, the binding result in assay [2] was “binds”.

B3: CKII regulatory subunit CKB3 fused to the GAL4 activation domain (CKB3-AD) (protein, UniProt O81275 1-276)
chain: MYKERSGGGGGGSSRSEILGGAIDRKRINDALNKKLEKSSTSTTTSRVFSSKDKDPFSFTSTKTQLPDVESETDSEGSDVSGSEGDDTSWISWFCNLRGNDFFCEVDEDYIQDDFNLCGLSGQVPYYDYALDLILDVDASNSEMFTDEQHEMVESAAEMLYGLIHVRYILTTKGMAAMTEKYKNCDFGRCPRVFCCGQSCLPVGQSDIPRSSTVKIYCPKCEDISYPRSKFQGNIDGAYFGTTFPHLFLMTYGNLKPQKPTQSYVPKIFGFKVHKP
In the case of B3, in assay [1], the binding result was “binds”.

B4: CKB3 fused to the C-terminal portion of yellow fluorescent protein (CKB3-YFP^C) (protein, UniProt O81275 1-276)
chain: B3 chain
With B4, the binding entry in assay [2] is recorded as “binds”.
